{"sequences": {"note": "By UniProt entry, the sequences of proteins in these tests, tags left out. Where a name states a change or a piece, a line headed by the entry shows the natural chain unless it says otherwise.", "UniProt Q9VMD4": "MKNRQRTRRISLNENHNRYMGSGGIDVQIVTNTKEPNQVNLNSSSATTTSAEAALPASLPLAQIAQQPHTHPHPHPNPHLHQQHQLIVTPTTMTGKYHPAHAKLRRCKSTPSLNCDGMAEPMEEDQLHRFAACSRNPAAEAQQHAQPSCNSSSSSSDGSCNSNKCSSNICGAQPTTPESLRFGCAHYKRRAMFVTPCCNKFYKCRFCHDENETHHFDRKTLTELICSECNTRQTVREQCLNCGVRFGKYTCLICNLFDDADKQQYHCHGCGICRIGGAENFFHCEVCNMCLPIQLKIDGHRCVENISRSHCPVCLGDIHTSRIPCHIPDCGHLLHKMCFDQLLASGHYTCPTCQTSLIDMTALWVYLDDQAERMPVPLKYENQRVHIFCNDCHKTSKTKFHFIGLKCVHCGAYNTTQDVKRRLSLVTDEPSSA"}, "source": "paper PMC5533735", "molecules": {"B1": {"name": "cyclin dependent kinase 9 (cdk9) (protein, UniProt O17432 1-404)", "chain": "MAHMSHMLQQPSGSTPSNVGSSSSRTMSLMEKQKYIEDYDFPYCDESNKYEKVAKIGQGTFGEVFKAREKKGNKKFVAMKKVLMDNEKEGFPITALREIRILQLLKHENVVNLIEICRTKATATNGYRSTFYLVFDFCEHDLAGLLSNMNVKFSLGEIKKVMQQLLNGLYYIHSNKILHRDMKAANVLITKHGILKLADFGLARAFSIPKNESKNRYTNRVVTLWYRPPELLLGDRNYGPPVDMWGAGCIMAEMWTRSPIMQGNTEQQQLTFISQLCGSFTPDVWPGVEELELYKSIELPKNQKRRVKERLRPYVKDQTGCDLLDKLLTLDPKKRIDADTALNHDFFWTDPMPSDLSKMLSQHLQSMFEYLAQPRRSNQMRNYHQQLTTMNQKPQDNSMIDRVW"}}, "key": {"[1]": {"molecular_target": "T1, cyclin dependent kinase 9 (cdk9) (Drosophila melanogaster (endogenous in whole flies)) (UniProt O17432)", "T1 sequence": "B1 chain", "assay": "co-IP; anti-cdk9 (mouse) with whole-fly lysate (Repo-Gal4 > UAS-GFP and Repo-Gal4 > UAS-CG16947) in RIPA buffer with 10 µM MG132 throughout lysis and co-immunoprecipitation, Protein A Sepharose; blot probed with anti-CG16947"}, "[2]": {"molecular_target": "CG16947 (Drosophila melanogaster) (UniProt Q9VMD4)", "assay": "co-IP; anti-CG16947 (rabbit) with 2.5 mg of whole-fly lysate (1d post-eclosion; Repo-Gal4 > UAS-GFP and Repo-Gal4 > UAS-CG16947) in RIPA buffer overnight at 4 °C, Protein A Sepharose, elution with SDS loading buffer without DTT; blot probed with anti-cdk9"}}, "note": "No constants are given. Whether binding was seen depends on the method and setting. Binding seen in cells or lysates may run through a third protein. A result given as binding can be weak or reduced; the word gives no strength.", "data": [{"molecule": "CG16947 (from UniProt Q9VMD4)", "values": [{"measurement": "binding", "setting": "[1]", "result": "binds"}]}, {"molecule": "B1", "values": [{"measurement": "binding", "setting": "[2]", "result": "binds"}]}]}
